Data as given in PubChem BioAssay AID1671195 (Yale University, 2021).
Aim: 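Regulators of LDL receptor activity judged by labelled LDL uptake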 (primary screen). System: human Huh7 hepatoma cells. Reagent: siRNA pool against human genes, 18 nM. Timing: about 2 to 2.5 days of knockdown, then 8 h LDL uptake. Challenge: DiI-labelled LDL at 30 µg/ml for 8 h, in lipoprotein-deficient serum medium. Measured: 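Per-cell DiI-LDL intensity by automated imaging; well means scaled to the plate median and given as a robust z-score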. Reading the numbers: robust z-score: higher = more LDL uptake after knockdown. Hit rule: 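Active when two or more replicates show a robust z-score above 2 or below -2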.
Here is a random part of about 22,000 deposited reagents. Of all reagents, about 1,510 (6.9%) were called active. 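Active includes knockdowns raising or lowering LDL uptake; positive z-scores mean more uptake, negative mean less.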 No sequences are given here.

gene symbol	robust z-score, replicate 1	robust z-score, replicate 2	robust z-score, replicate 3	call
CNN2	-1.28	-0.707	-0.816	inactive
MYADML	1.8	-0.0697	1.73	inactive
GALNS	1.57	1.24	1.41	inactive
SLC6A14	-0.294	-0.374	-0.865	inactive
CAMKMT	-0.881	-0.0931	-0.47	inactive
POLG2	-0.711	-0.584	-0.514	inactive
SAFB2	-0.509	-0.405	-0.132	inactive
USP20	0.399	0.211	0.882	inactive
SMARCB1	-0.827	-1.33	-0.479	inactive
LOC144631 (retired record)	0.379	-0.21	2.09	inactive
CDRT4	-0.935	-1.04	-0.989	inactive
EMC3-AS1	-1.25	-1.48	-1.19	inactive
RPL23AP12	0.0295	0.236	0.825	inactive
FAXDC2	2.1	1.93	1.17	active
DISC1	1.54	0.51	1.28	inactive
UBASH3B	-0.594	-0.908	-0.389	inactive
CLMB	-1.05	-0.735	-1.47	inactive
SFR1	0.0991	0.0939	0.0491	inactive
PLAG1	4.63	4.38	3.88	active
TMEM82	-0.226	-0.258	-0.37	inactive
LOC387762 (retired record)	-0.292	-0.46	-0.621	inactive
MOG	-1.09	-0.576	-0.637	inactive
NDUFV2	1.93	1.32	2.25	inactive
LOC440523 (retired record)	-1.66	-1.65	-1.79	inactive
TNFRSF12A	0.754	0.0675	1.38	inactive
ZNF805	-0.871	-0.39	-0.701	inactive
ZFAND2A	-0.578	-0.000336	-0.305	inactive
CXCR4	-1.81	-0.926	-1.26	inactive
OR7D4	0.242	-0.196	-0.851	inactive
SOD2	0.643	0.204	0.251	inactive
MBD4	1.3	2.45	1.59	inactive
CRYAA	-0.082	0.403	0.301	inactive
ZNF132	-1.81	-1.75	-1.55	inactive
NOSIP	2.02	0.767	1.3	inactive
MOSPD1	-1.21	-2.13	1.79	inactive
MRI1	1.75	0.89	0.841	inactive
DAW1	0.774	-0.486	-0.207	inactive
VPS18	3.65	3.17	3.03	active

Entries above called active, once more:
gene symbol	robust z-score, replicate 1	robust z-score, replicate 2	robust z-score, replicate 3	call
FAXDC2	2.1	1.93	1.17	active
PLAG1	4.63	4.38	3.88	active
VPS18	3.65	3.17	3.03	active

Next entries follow:
gene symbol	robust z-score, replicate 1	robust z-score, replicate 2	robust z-score, replicate 3	call
NPTN	0.034	0.901	0.17	inactive
ATG9A	0.973	0.728	1.14	inactive
L3MBTL3	4.91	4.96	4.21	active
CHMP4A	0.439	-0.788	-0.476	inactive
C18orf32	0.737	0.717	1.23	inactive
ITGB4	-0.312	-0.461	-0.45	inactive
GTPBP6	1.7	0.179	2.17	inactive
GPR176	1.03	0.125	0.338	inactive
TGFB1I1	-1.08	-1.33	-1.15	inactive
SDR16C6P	1.24	1.98	1.89	inactive
NUS1P1	0.742	0.535	0.857	inactive
ETFB	-0.511	0.0142	-0.835	inactive
POP4	-1.37	-0.799	-0.927	inactive
EIF2D	-0.386	0.255	0.706	inactive
THSD7B	-1.07	-1.02	-0.883	inactive
NXF5	1.61	1.03	-0.12	inactive
ASCL2	0.0646	-0.0413	-0.395	inactive
PPP1R14C	-1.86	-1.65	-1.75	inactive
SERPINI1	-0.687	0.0803	-0.821	inactive
LOC442020 (retired record)	0.331	0.339	0.47	inactive
CLEC2A	-0.283	0.551	-0.079	inactive
LOC389782 (retired record)	-0.282	-0.478	-0.965	inactive
KLHL32	0.853	-1.24	-0.314	inactive
DNAAF3	-0.267	-0.767	-0.544	inactive
LAP3	0.269	0.349	-0.16	inactive
DNAJB1	-0.442	-0.901	-0.58	inactive
HLCS	0.0708	1.85	1.87	inactive
LOC441646 (retired record)	-0.0408	0.24	0.51	inactive
RUNX2	0.34	0.394	0.0984	inactive
TPD52	-1.02	-0.523	-0.328	inactive
